Test [1] has as its target T1, biotin ligase-fused casp3 (BioCasp3), plasmid construct (UniProt P42574).
T1 sequence: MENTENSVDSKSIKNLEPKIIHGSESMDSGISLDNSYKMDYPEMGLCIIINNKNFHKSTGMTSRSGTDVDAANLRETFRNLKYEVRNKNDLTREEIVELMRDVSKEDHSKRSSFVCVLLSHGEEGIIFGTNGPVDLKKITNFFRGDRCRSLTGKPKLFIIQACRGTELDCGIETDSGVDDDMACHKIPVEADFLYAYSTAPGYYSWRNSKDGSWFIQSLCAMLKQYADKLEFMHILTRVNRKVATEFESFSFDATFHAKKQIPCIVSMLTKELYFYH
In words: proximity labelling.

The target of test [2] is T2, biotin ligase-fused AQP1 (AdBioAQP1), adenoviral construct (human) (UniProt P29972).
T2 sequence: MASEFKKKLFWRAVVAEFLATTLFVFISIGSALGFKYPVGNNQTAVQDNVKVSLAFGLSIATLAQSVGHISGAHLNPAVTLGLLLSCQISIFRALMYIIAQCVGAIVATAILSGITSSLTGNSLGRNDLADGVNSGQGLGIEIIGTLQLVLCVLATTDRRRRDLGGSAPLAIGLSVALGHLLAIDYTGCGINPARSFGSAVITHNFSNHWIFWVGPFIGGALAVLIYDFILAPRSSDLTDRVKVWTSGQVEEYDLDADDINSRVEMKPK
In words: proximity labelling.

Results are given in words; binding and its absence hold for the method and conditions named. In cells and extracts the contact can be indirect. A yes stands for co-enrichment or nearness to the bait. Other partners may have been found. Sequences can lack the tags named with a protein.

B1: wild type AQP1 (WTAQP1), plasmid construct (protein, UniProt P29972 1-269)
chain: T2 sequence
On to B1, for which the binding result in test [1] is listed as “binds”.

B2: pro-casp3, endogenous in rat PASMCs (enzyme, UniProt P55213 1-277)
chain: MDNNETSVDSKSINNFETKTIHGSKSMDSGIYLDSSYKMDYPEMGLCIIINNKNFHKSTGMSARNGTDVDAANLRETFMALKYEVRNKNDLTREEIMELMDSVSKEDHSKRSSFVCVILSHGDEGVIFGTNGPVDLKKLTSFFRGDYCRSLTGKPKLFIIQACRGTELDCGIETDSGTDDDMACQKIPVEADFLYAYSTAPGYYSWRNSRDGSWFIQSLCAMLKLYAHKLEFMHILTRVNRKVATEFESFSLDATFHAKKQIPCIVSMLTKELYFYH
For B2, the binding entry in test [2] was “binds”.

The values are drawn from paper doi:10.1101/2023.10.05.561144.
